Data from PubChem BioAssay AID2685 (National Center for Advancing Translational Sciences (NCATS), 2010).
This is one part of the list. Shown are side measurements of this screen, not its main read-out; they come without a call. Most of these compounds were active or inconclusive in the main read-out, so they are no random draw. The note in brackets gives the kind of curve behind each potency; many fits are weak.

Assay: qHTS Assay for Lipid Storage Modulators in Drosophila S3 Cells;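 for cell number change: cells counted by Cell Tracker Red CMTPX staining in the red channel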
Details: BODIPY lipid droplet fluorescence, 18-24 h; for cell number change: measured here: cell count max response, cells fed with added oleic acid
Method in brief: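 Laser-scanning cytometry quantifies lipid droplet accumulation (500–530 nm total intensity; droplet/cell object ratio) in oleic acid-fed (400 uM added) Drosophila S3 cells treated with a concentration series. 20 uM Triacsin C defined 100% inhibition.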

[1] = measured here: cell number channel AC50, cells fed with added oleic acid
[2] = measured here: lipid fluorescence (Fed channel) AC50, cells fed with added oleic acid

Row | SMILES | cell number change | AC50 [1] | AC50 [2]
1 | CN(CCO)c1cc(Sc2nc3ccccc3s2)c2nonc2c1[N+](=O)[O-] | -83.7% | 29.1 µM [falling, single point] | 29.1 µM [falling, single point]
2 | O=C(Nc1cccc(NC(=O)c2ccco2)c1)c1ccc2c(c1)OCCO2 | -8.2% | – | 32.6 µM [falling, single point]
3 | COC(=O)c1sccc1Oc1ccc(Cl)cc1N1C(=O)CCC1=O | 10.3% | – | –
4 | COc1ccccc1CNC(=O)CN(C)S(=O)(=O)c1ccc2c(c1)c(=O)n(C)c(=O)n2C | – | – | 5.17 µM [falling, full curve]
5 | Cc1ccc(-c2nc3ccccc3[nH]2)cc1NC(=O)/C=C/c1ccco1 | -24% | – | 4.11 µM [falling, partial curve]
6 | NS(=O)(=O)c1ccc(CCNC(=O)COc2ccc3c4c(c(=O)oc3c2)CCC4)cc1 | 34.3% | 16.4 µM [rising, single point] | –
7 | CCOC(=O)N1CCN(C(=O)C2CCCN(S(=O)(=O)c3c(C)cc(C)cc3C)C2)CC1 (stereo not drawn) | -22.4% | – | –
8 | O=C(c1ccc(CS(=O)c2ccc(F)cc2)o1)N1CCN(C2CCCCC2)CC1 (stereo not drawn) | -24.8% | – | 9.2 µM [rising, partial curve]
9 | Cc1nc(SC(C)C(=O)c2c(N)n(C)c(=O)n(C)c2=O)c2c(C)c(C)sc2n1 (stereo not drawn) | 43.6% | 1.84 µM [rising, full curve, poor fit] | 2.31 µM [rising, full curve]
10 | O=C(Nc1ccccc1-c1ccccc1)C1CCC1 | 39.6% | – | 0.103 µM [rising, single point]
11 | COc1ccccc1NC(=O)COc1ccc2ccccc2c1 | -11.4% | – | 29.1 µM [falling, single point]
12 | C/C(=C\c1ccccc1)CN1CCN(C)CC1 | 32.3% | 29.1 µM [rising, single point] | 29.1 µM [rising, single point]
13 | CSCCC(NS(=O)(=O)c1ccc(Cl)cc1)C(=O)OCC(=O)c1ccc(F)cc1 (stereo not drawn) | 155% | 10.3 µM [rising, partial curve] | –
14 | CN(C)S(=O)(=O)c1cccc(C(=O)Nc2ccccc2N2CCCCC2)c1 | -2.52% | – | –
15 | Cc1ccc([N+](=O)[O-])cc1NC(=O)CCc1ccccc1 | 3.87% | – | –
16 | CC(=O)Nc1ccc(NC(=O)C(C)OC(=O)C2CCN(S(=O)(=O)c3ccccc3C(F)(F)F)CC2)cc1 (stereo not drawn) | -25% | – | 18.4 µM [rising, partial curve, poor fit]
17 | CCCCN(C(=O)CSCC(=O)Nc1cccc(C)c1)c1c(N)n(Cc2ccccc2)c(=O)[nH]c1=O | -19% | – | 6.51 µM [rising, single point]
18 | COc1cc(-c2nc(-c3ccc(NC(=O)c4ccc(Br)o4)cc3)no2)cc(OC)c1OC | -145% | 23.1 µM [falling, single point] | 0.82 µM [rising, single point]
19 | Cc1cccc(-n2c(SCc3cc(=O)n4ccsc4n3)nc3ccccc32)c1 | – | – | 13 µM [falling, partial curve]
20 | COc1cc2nc(CN3C(=O)c4ccccc4C3=O)oc(=O)c2cc1OC | -7.62% | – | –

Reformatted with tabs: part of the list above.
Row	SMILES	cell number change	AC50 [1]	AC50 [2]
10	O=C(Nc1ccccc1-c1ccccc1)C1CCC1	39.6%	–	0.103 µM [rising, single point]
11	COc1ccccc1NC(=O)COc1ccc2ccccc2c1	-11.4%	–	29.1 µM [falling, single point]
12	C/C(=C\c1ccccc1)CN1CCN(C)CC1	32.3%	29.1 µM [rising, single point]	29.1 µM [rising, single point]
13	CSCCC(NS(=O)(=O)c1ccc(Cl)cc1)C(=O)OCC(=O)c1ccc(F)cc1 (stereo not drawn)	155%	10.3 µM [rising, partial curve]	–
14	CN(C)S(=O)(=O)c1cccc(C(=O)Nc2ccccc2N2CCCCC2)c1	-2.52%	–	–
15	Cc1ccc([N+](=O)[O-])cc1NC(=O)CCc1ccccc1	3.87%	–	–
16	CC(=O)Nc1ccc(NC(=O)C(C)OC(=O)C2CCN(S(=O)(=O)c3ccccc3C(F)(F)F)CC2)cc1 (stereo not drawn)	-25%	–	18.4 µM [rising, partial curve, poor fit]
17	CCCCN(C(=O)CSCC(=O)Nc1cccc(C)c1)c1c(N)n(Cc2ccccc2)c(=O)[nH]c1=O	-19%	–	6.51 µM [rising, single point]
18	COc1cc(-c2nc(-c3ccc(NC(=O)c4ccc(Br)o4)cc3)no2)cc(OC)c1OC	-145%	23.1 µM [falling, single point]	0.82 µM [rising, single point]
19	Cc1cccc(-n2c(SCc3cc(=O)n4ccsc4n3)nc3ccccc32)c1	–	–	13 µM [falling, partial curve]
20	COc1cc2nc(CN3C(=O)c4ccccc4C3=O)oc(=O)c2cc1OC	-7.62%	–	–

Remaining list, next part:

Row | SMILES | cell number change | AC50 [1] | AC50 [2]
21 | O=C(Nc1ccccc1F)c1ccc2ncsc2c1 | – | – | 6.51 µM [falling, single point]
22 | S=C(NCc1ccc2[nH]c3c(c2c1)CCCC3)Nc1ccccc1 | -17.4% | – | 0.58 µM [rising, full curve]
23 | O=C(NCc1ccccc1Cl)C1CC(=O)N(Cc2ccccc2)C1 (stereo not drawn) | -7.51% | – | –
24 | O=C(/C=C/c1ccco1)NC(=S)Nc1ccccc1O | 17.1% | – | –
25 | O=C(COC(=O)c1cccnc1Cl)Nc1ccc2c(c1)OCO2 | 57.9% | 29.1 µM [rising, single point] | –
26 | CCCCOc1ccc(N2C(=O)CC(N(O)c3ccccc3)C2=O)cc1 (stereo not drawn) | -6.81% | – | 0.116 µM [falling, full curve]
27 | CC(=O)c1ccc(OCCCOc2cccc3cccnc23)cc1 | 0.351% | – | 29.1 µM [falling, single point]
28 | Cc1cccc(-n2ncc3c(N(C)C4CCCCC4)ncnc32)c1 | 0.794% | – | 4.61 µM [rising, partial curve, poor fit]
29 | CCOc1ccc(NC(=O)CCNC(=O)C2CCN(S(=O)(=O)c3ccccc3)CC2)cc1 | -3.12% | 0.164 µM [rising, single point] | –
30 | COC1(OC)C(/C=C/c2ccc(Cl)cc2)C(C#N)(C#N)C1(OC)OC (stereo not drawn) | -58.2% | 11.6 µM [falling, partial curve] | 13 µM [falling, partial curve]
31 | CN(C)S(=O)(=O)c1ccc(N2C(=O)CC2(/C=C/c2ccccc2)C(=O)NC2CCCC2)cc1 (stereo not drawn) | -14.8% | – | –
32 | CC(=O)c1ccc(OCC(O)CN2CCN(Cc3ccccc3)CC2)cc1 (stereo not drawn) | – | – | 6.51 µM [rising, partial curve, poor fit]
33 | Cn1c(=O)c2c(SCc3cccnc3)nc(C3CC3)nc2n(C)c1=O | -24.3% | – | 29.1 µM [falling, single point]
34 | Cc1cc(C(=O)N/N=C/c2ccc([N+](=O)[O-])s2)n[nH]1 | -25.8% | – | 0.58 µM [falling, partial curve, poor fit]
35 | O=C(NNC1=C(C(=O)C(F)(F)F)CCC1)c1ccccc1Cl | -64.7% | 29.1 µM [falling, single point] | –
36 | CCCN1CCc2c(sc3nc(SCC)n(-c4ccc(OC)cc4)c(=O)c23)C1 | 11.1% | – | –
37 | O=C(O)c1cn(-c2ccccc2)c(=O)c2ccccc12 | -9.72% | – | 0.00517 µM [falling, full curve, poor fit]
38 | COc1ccc(NC(=O)Cn2c(=O)cnc3ccccc32)cc1S(=O)(=O)N1CCCCC1 | 13% | – | 8.2 µM [rising, partial curve]
39 | O=C(Nc1ccccn1)c1ccc2c(c1)S(=O)(=O)c1ccccc1C2=O | 5.45% | – | 4.11 µM [rising, full curve]
40 | C/C(CC1(O)C(=O)N(C)c2ccccc21)=N\O (stereo not drawn) | 1.81% | – | 0.231 µM [falling, full curve, poor fit]

Row | SMILES | cell number change | AC50 [1] | AC50 [2]
41 | O=C(O)CC(NS(=O)(=O)c1c(F)cc(F)cc1Br)c1ccccc1Cl (stereo not drawn) | -30.2% | 29.1 µM [falling, single point] | 18.4 µM [falling, partial curve, poor fit]
42 | COc1cc2[nH]c(C(=O)NCCc3ccccc3)cc2c(OC)c1OC | – | 0.00411 µM [rising, full curve, poor fit] | 18.4 µM [rising, single point]
43 | CC(C)c1ccc(N(C)C(=O)Cc2c(C(=O)O)n(C)c3ccccc23)cc1 | -15.1% | – | 0.58 µM [falling, single point]
44 | CCCC(c1c(C)n(C)n(-c2ccccc2)c1=O)c1c(C)n(C)n(-c2ccccc2)c1=O | 4.7% | – | 18.4 µM [rising, single point]
45 | CCOc1ccc(/C=N/NC(=O)c2cc(-c3ccccc3)nc3ccccc23)cc1O | -30.6% | 0.00517 µM [falling, full curve, poor fit] | –
46 | CCc1ccccc1N(CC(=O)NCC1CCCO1)C(=O)CCC(=O)Nc1cc(C)on1 (stereo not drawn) | – | – | 5.8 µM [falling, partial curve]
47 | Cc1ccc(S(=O)(=O)N(C(=O)c2ccncc2)c2ccc(OC(=O)c3ccncc3)cc2)c(C)c1 | 8.36% | – | 0.184 µM [falling, partial curve]
48 | CC(C)CC1C(C#N)=C(N)SC(N)=C1C#N | -3.36% | – | 0.731 µM [rising, single point]
49 | CC1CCCN(c2ccc(C(=O)NCC3CCCO3)cn2)C1 (stereo not drawn) | -7.19% | – | 29.1 µM [rising, single point]
50 | Cc1cc2c(NC(=O)Nc3ccc(C(C)(C)C)cc3)cccc2nn1 | -24.6% | – | 29.1 µM [falling, single point]
51 | COc1ccc(C2C(C#N)=C(N)Oc3c2sc2nc(C)cc(C)c32)cc1 (stereo not drawn) | 25.7% | – | –
52 | CC(C)CN1C(=O)c2ccc(C(=O)Nc3ccncc3)cc2C1=O | -32% | 11.6 µM [falling, partial curve] | 0.461 µM [falling, full curve, poor fit]
53 | COC(=O)CCc1n[nH]c(=O)[nH]c1=O | -24.3% | – | 0.461 µM [falling, full curve, poor fit]
54 | Oc1[nH]c(N=C2N=c3ccccc3=N2)c2ccccc12 | 56.9% | 8.2 µM [rising, partial curve, poor fit] | 14.6 µM [falling, single point]
55 | COc1ccc(CCNC(=O)CC(c2ccccc2)c2cc(C)ccc2O)cc1OC (stereo not drawn) | -55.4% | 20.6 µM [falling, partial curve] | 0.13 µM [falling, full curve, poor fit]
56 | NC1=NC[C@@H](Cc2ccc(O)cc2)N1CCCCC1CCCCC1 | -5.81% | – | 0.231 µM [falling, full curve, poor fit]
57 | Fc1ccccc1CSc1nc2ncc(Br)cc2[nH]1 | – | 0.00461 µM [falling, full curve, poor fit] | –
58 | COc1ccccc1/C=N/NC(=O)c1ccc(=O)n(C)c1 | -72.7% | 13 µM [falling, partial curve] | 4.11 µM [falling, single point]
59 | O=C(CCNC(=O)c1ccc(Cl)cc1)Nc1ccccc1N1CCCC1 | 20.5% | – | –
60 | Cc1c(Cc2ccccc2)c(=O)oc2c(C)c(OC(C)C(=O)NCC3CCC(C(=O)O)CC3)ccc12 (stereo not drawn) | 4.21% | – | 18.4 µM [falling, partial curve, poor fit]
